Source: PMC11707394
No constants are given. Whether binding was seen depends on the method and setting. In cells and extracts the contact can be indirect. A yes stands for co-enrichment or nearness to the bait. Other partners may have been found.

Amino acid sequences for entries named in this document (tags omitted).
UniProt Q9H9B1: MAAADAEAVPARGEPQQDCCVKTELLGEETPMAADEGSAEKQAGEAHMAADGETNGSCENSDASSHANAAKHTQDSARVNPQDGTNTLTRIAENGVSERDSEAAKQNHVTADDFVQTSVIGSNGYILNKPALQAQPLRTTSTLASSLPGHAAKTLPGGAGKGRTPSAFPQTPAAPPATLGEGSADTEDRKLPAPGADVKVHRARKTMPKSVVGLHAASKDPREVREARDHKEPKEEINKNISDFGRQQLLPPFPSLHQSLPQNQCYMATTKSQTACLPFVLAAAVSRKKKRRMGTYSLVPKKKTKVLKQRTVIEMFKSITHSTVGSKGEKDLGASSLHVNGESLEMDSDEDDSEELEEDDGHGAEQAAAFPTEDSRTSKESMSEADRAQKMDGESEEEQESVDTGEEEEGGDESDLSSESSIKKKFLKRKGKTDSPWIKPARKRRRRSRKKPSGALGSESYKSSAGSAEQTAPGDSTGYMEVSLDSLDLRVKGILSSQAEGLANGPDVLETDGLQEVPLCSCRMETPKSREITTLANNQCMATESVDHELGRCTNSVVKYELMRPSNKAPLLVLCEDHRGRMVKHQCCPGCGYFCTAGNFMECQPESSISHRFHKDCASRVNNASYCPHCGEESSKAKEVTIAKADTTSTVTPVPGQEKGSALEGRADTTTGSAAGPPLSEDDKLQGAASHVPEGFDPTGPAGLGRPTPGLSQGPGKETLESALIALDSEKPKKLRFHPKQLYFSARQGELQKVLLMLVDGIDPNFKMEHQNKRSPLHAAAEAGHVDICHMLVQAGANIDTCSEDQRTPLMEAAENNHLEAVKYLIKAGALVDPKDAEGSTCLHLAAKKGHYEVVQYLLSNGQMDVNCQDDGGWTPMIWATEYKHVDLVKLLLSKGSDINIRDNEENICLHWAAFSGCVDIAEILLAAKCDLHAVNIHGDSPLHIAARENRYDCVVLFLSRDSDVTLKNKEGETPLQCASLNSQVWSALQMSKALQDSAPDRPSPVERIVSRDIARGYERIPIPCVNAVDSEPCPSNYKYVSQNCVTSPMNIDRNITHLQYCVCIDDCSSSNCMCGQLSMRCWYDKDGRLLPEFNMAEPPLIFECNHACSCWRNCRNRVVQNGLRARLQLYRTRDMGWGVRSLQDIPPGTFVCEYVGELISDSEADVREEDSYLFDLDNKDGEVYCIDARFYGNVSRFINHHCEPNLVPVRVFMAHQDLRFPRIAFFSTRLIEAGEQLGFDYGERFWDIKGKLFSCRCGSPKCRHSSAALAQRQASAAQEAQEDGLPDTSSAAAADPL
UniProt P20700: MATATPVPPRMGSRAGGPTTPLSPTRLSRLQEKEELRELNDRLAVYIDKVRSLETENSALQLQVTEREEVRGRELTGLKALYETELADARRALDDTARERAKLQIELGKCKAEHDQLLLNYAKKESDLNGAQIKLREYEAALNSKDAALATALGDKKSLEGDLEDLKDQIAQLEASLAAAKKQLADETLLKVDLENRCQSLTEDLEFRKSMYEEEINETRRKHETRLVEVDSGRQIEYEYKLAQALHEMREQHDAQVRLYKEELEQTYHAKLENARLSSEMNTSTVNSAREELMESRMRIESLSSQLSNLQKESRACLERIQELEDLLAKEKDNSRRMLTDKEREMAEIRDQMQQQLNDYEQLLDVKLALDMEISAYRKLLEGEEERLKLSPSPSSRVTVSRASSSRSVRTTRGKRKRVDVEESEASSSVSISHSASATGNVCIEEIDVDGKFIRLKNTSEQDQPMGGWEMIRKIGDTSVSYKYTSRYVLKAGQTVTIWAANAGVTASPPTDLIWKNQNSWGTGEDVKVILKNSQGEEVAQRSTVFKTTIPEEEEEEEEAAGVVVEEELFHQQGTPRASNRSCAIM

Biological target: EHMT1, endogenous in 293 cells (human (endogenous in HEK293)) (UniProt Q9H9B1)
Test: affinity purification with mass spectrometry; immunoprecipitation of endogenous EHMT1, excision of unique bands, LC/MS

binding: binds
Substance: LMNB1 (from UniProt P20700 1-586)
